Some compounds share one wording; it may come from a single statement.
What was measured:
[1] = Indiscriminate thiol reactivity assay with cysteine (LC-MS adduct quantification); conditions: for Adduct: 100 μM inhibitor, 10 mM cysteine, 10 mM phosphate pH 7.4, 37° C., 16 h; for adduct formation with cysteine (in words): cysteine assay, Table 1
[2] = Indiscriminate thiol reactivity assay with GSH (LC-MS adduct quantification); conditions: 100 μM inhibitor, 5 mM GSH in PBS, 37° C., 16 h

Row | SMILES | Adduct [1] [%] | adduct formed with GSH [2] [%] | adduct formation with cysteine (in words) [1]
1 | CC(C)(F)C[C@H](N[C@@H](c1ccc(-c2ccc(S(C)(=O)=O)cc2)cc1)C(F)(F)F)C(=O)NCC#CBr [Compound 6, (S)—N-(3-bromoprop-2-yn-1-yl)-4-fluoro-4-methyl-2-(((S)-2,2,2-trifluoro-1-(4′-(methylsulfonyl)-[1,1′-biphenyl]-4-yl)ethyl)amino)pentanamide] | 50 | 54 | –
2 | C#CC(C)NC(=O)[C@H](CC(C)(C)F)N[C@@H](c1ccc(-c2ccc(S(C)(=O)=O)cc2)cc1)C(F)(F)F (mixture of isomers) [Compound 5, (S)—N—((R/S)-but-3-yn-2-yl)-4-fluoro-4-methyl-2-(((S)-2,2,2-trifluoro-1-(4′-(methylsulfonyl)-[1,1′-biphenyl]-4-yl)ethyl)amino)pentanamide] | 0 | 0 | not detected
3 | CC(C)(F)C[C@H](N[C@@H](c1ccc(-c2ccc(S(C)(=O)=O)cc2)cc1)C(F)(F)F)C(=O)NCC#N [Compound 2, (S)—N-(cyanomethyl)-4-fluoro-4-methyl-2-(((S)-2,2,2-trifluoro-1-(4′-(methylsulfonyl)-[1,1′-biphenyl]-4-yl)ethyl)amino)pentanamide, reference compound] | 79 | – | significant adduct formation
4 | C#CC1(NC(=O)[C@H](CC(C)(C)F)N[C@@H](c2ccc(-c3ccc(S(C)(=O)=O)cc3)cc2)C(F)(F)F)CC1 [Compound 3, (S)—N-(1-ethynylcyclopropyl)-4-fluoro-4-methyl-2-(((S)-2,2,2-trifluoro-1-(4′-(methylsulfonyl)-[1,1′-biphenyl]-4-yl)ethyl)amino)pentanamide] | 0 | – | not detected
5 | CC(C)C[C@H](NC(=O)[C@H]1O[C@@H]1C(=O)O)C(=O)NCCCCN=C(N)N [Compound E-64, reference compound] | 32 | – | significant adduct formation
6 | CC(C)(F)C[C@H](N[C@@H](c1ccc(-c2ccc(S(C)(=O)=O)cc2)cc1)C(F)(F)F)C(=O)NC1(C#N)CC1 [ODN, (S)—N-(1-cyanocyclopropyl)-4-fluoro-4-methyl-2-(((S)-2,2,2-trifluoro-1-(4′-(methylsulfonyl)-[1,1′-biphenyl]-4-yl)ethyl)amino)pentanamide, reference compound] | 25 | – | significant adduct formation
7 | C#CCNC(=O)[C@H](CC(C)(C)F)N[C@@H](c1ccc(-c2ccc(S(C)(=O)=O)cc2)cc1)C(F)(F)F [Compound 4, (S)-4-fluoro-4-methyl-N-(prop-2-yn-1-yl)-2-(((S)-2,2,2-trifluoro-1-(4′-(methylsulfonyl)-[1,1′-biphenyl]-4-yl)ethyl)amino)pentanamide] | 0 | 0 | not detected
